Assay results taken from patent publication US7223837B2, “Elongated and multiple spacers in activatible prodrugs” (Syntarga B.V., priority 2001, dated 2007).
At least one compound was matched to its structure with a doubt left.

Amino acid sequences for entries named in this document (tags omitted). Residues count along the entry.
UniProt P00747, 97-580 partner limits assumed: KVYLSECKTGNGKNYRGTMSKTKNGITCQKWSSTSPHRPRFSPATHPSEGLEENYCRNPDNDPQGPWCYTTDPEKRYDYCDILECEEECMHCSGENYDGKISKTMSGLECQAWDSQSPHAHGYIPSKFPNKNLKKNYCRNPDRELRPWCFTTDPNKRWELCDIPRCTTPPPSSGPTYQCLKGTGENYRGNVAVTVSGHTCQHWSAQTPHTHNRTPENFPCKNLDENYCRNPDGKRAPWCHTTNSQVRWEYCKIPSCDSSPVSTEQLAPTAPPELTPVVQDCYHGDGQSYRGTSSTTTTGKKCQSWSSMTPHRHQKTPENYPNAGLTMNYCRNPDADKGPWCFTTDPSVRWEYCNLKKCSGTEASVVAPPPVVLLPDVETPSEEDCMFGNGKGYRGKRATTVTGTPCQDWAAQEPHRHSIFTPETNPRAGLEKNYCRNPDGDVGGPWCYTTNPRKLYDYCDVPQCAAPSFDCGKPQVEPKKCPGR
UniProt P00747, 581-810 limits assumed: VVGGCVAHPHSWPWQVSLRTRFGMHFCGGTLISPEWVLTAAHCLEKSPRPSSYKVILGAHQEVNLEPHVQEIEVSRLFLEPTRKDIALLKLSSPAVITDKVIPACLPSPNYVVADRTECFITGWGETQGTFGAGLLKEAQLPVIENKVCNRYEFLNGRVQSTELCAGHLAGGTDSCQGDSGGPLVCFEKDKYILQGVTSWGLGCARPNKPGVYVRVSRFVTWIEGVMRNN

Target: T1, human plasmin (Homo sapiens, UniProt P00747)
T1 construct: purchased Fluka
Experiment: Enzymatic hydrolysis of paclitaxel prodrugs by plasmin (capillary electrophoresis)
Format: biochemical
Settings: [prodrug] 200 μM, [plasmin] 100 μg/mL, pH 7.3

`CC(=O)OC1C(=O)C2(C)C(O)CC3OCC3(OC(C)=O)C2C(OC(=O)c2ccccc2)C2(O)CC(OC(=O)C(OC(=O)OCc3ccc(NC(=O)OCc4ccc(NC(=O)C(CCCCN)NC(=O)C(Cc5ccccc5)NC(=O)C(C)N)cc4)cc3)C(NC(=O)c3ccccc3)c3ccccc3)C(C)=C1C2(C)C.Cl.Cl` [Prodrug 22, 2′-[H-D-Ala-Phe-Lys-PABC-PABC]-paclitaxel (.2HCl)] gave a T1/2 activation of 7.5 min.
